This note sets out measurements from publication PMC8706813.

By UniProt entry, the sequences of proteins in these tests, tags left out.
UniProt P10415: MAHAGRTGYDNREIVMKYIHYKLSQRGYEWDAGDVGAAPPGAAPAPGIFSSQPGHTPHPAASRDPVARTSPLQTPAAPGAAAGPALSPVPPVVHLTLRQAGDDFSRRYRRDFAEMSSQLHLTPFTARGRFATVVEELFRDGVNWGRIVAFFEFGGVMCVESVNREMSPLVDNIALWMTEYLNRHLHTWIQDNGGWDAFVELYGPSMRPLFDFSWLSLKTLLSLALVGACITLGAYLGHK
UniProt Q14457: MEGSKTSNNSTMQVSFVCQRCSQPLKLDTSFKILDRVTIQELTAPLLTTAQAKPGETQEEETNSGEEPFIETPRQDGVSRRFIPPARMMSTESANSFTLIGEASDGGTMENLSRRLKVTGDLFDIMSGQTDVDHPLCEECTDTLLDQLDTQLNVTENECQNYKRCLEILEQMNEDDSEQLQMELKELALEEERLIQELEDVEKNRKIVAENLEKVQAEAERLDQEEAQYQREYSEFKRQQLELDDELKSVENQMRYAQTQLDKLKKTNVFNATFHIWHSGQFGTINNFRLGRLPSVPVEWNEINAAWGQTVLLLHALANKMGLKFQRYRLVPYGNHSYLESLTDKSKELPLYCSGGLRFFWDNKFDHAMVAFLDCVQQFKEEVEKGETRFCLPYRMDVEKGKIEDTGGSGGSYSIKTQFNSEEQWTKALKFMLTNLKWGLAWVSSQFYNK

Assay [1] deals with Bcl-2 (human (endogenous in AGS and SNU-638)) (UniProt P10415). Description: co-IP; lysates of AGS and SNU-638 cells treated with APG (50 μM) for the indicated times; IP with anti-Bcl-2 or anti-Beclin-1 at 4 °C for 16 h, protein A/G Plus agarose; IP buffer pH 7.5, 50 mM Tris-HCl, 250 mM NaCl, 5 mM EDTA, 0.5% NP-40; Western blot. A general note: Immunoblotting shows a protein as a band on a membrane.

The target in assay [2] is Beclin-1 (human (endogenous in AGS and SNU-638)) (UniProt Q14457). The description is as above.

These are yes or no findings as the source states them, for the method shown. Binding seen in cells or lysates may run through a third protein. Some results given as binding are weak or reduced against the parent protein; the word gives no strength.

As for Beclin-1 (from UniProt Q14457 1-450), the binding entry in assay [1] is reported as “binds”. With Bcl-2 (from UniProt P10415 1-239), the binding result in assay [2] is “binds”.
